# This is one part of the list. Shown are side measurements of this screen, not its main read-out; they come without a call. The list favours compounds with an active or inconclusive main result. Words in brackets tell the shape of the fitted curve; partial curves, single points and poor fits give uncertain potencies.
# Assay: qHTS Assay for Modulators of Lamin A Splicing
# Conditions: HeLa LMNA splicing GFP/RFP minigene ratio, 48 h
# Outline: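 Read-out is the ratio of GFP to DsRed2 object intensity, acquired by 488 nm laser-scanning cytometry on HeLa lamin A-EGFP minigene reporter cells. Compound incubation 48 hrs at 37 °C in Opti-MEM with 2% FBS; DMSO 0.5% final.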
# [1] = measured here: GFP splicing reporter channel
# [2] = measured here: RFP viability control channel
compound,measurement,setting,value
Cc1ccc(C2C3=C(Nc4[nH]n(-c5ccccc5)c(=O)c42)c2ccccc2C3=O)cc1 (stereo not given),AC50,[1],"20 µM [rising, partial curve, poor fit]"
same,AC50,[2],"12.6 µM [rising, partial curve]"
COc1c2c(nc3occc13)C(CC=C(C)C)(OC)C(O)CC2 (stereo not given),AC50,[1],"5.62 µM [rising, partial curve, poor fit]"
C=CCc1ccccc1OCC(O)CN1CCN(CCN2C(=O)c3cccc4cccc(c34)C2=O)CC1 (stereo not given),AC50,[2],"35.5 µM [falling, single point]"
CCCSc1nc(N2CCOCC2)c2c(c1C#N)CCCC2,AC50,[1],"35.5 µM [rising, single point]"
same,AC50,[2],"25.1 µM [rising, single point]"
FC(F)Oc1ccc(-c2csc(Cc3nnc4n3CCCCC4)n2)cc1,AC50,[1],"15.8 µM [rising, single point]"
same,AC50,[2],"31.6 µM [rising, single point]"
O=C(NNC(=S)NC(=O)c1sc2ccccc2c1Cl)c1ccc(Cl)cc1,AC50,[1],"3.55 µM [falling, single point]"
same,AC50,[2],"0.251 µM [falling, partial curve, poor fit]"
CCc1cccc(CC)c1NC(=O)COc1ccccc1C(=O)c1cc(C#N)c(=O)n(C2CCCCC2)c1,AC50,[1],"14.1 µM [rising, single point]"
same,AC50,[2],"14.1 µM [rising, single point]"
Cc1ccccc1N=C1SC(CC(=O)Nc2ccc3ccccc3c2)C(=O)N1Cc1ccccn1 (stereo not given),AC50,[1],"35.5 µM [falling, single point]"
COc1ccc(NC(=S)N(CCc2c(C)[nH]c3ccccc23)Cc2cccnc2)cc1,AC50,[2],"2.24 µM [rising, partial curve, poor fit]"
O=C(CSc1c2c(nc3cc(Cl)ccc13)CCCC2)NCc1ccco1,AC50,[2],"17.8 µM [rising, single point]"
Oc1c(C(c2ccccc2)N2CCN(c3ccccc3)CC2)sc2nc(-c3ccco3)nn12 (stereo not given),AC50,[2],"31.6 µM [falling, single point]"
CCN1C(=O)C2C(c3cccc(F)c3)NC(C)(C(=O)OC)C2C1=O (stereo not given),AC50,[1],"0.501 µM [falling, single point]"
Cc1ccc2nc(Cl)c(/C=N/NC(=O)c3ccccc3O)cc2c1,AC50,[2],"35.5 µM [rising, single point]"
CCOC(=O)c1cc(C#N)c(SCc2ccc(C#N)cc2)nc1C,AC50,[1],"14.1 µM [rising, single point]"
Clc1cccc(Cl)c1CON/C=N/c1ncnc2sccc12,AC50,[2],"2.51 µM [rising, partial curve]"
Cc1cc(/C=N/NC(N)=S)c(C)n1-c1ccc(Cl)c(Cl)c1,AC50,[1],"6.31 µM [rising, partial curve]"
same,AC50,[2],"2.51 µM [rising, partial curve, poor fit]"
O=C(CSc1nnc(Nc2ccccc2F)s1)Nc1cccc(S(=O)(=O)N2CCCCC2)c1,AC50,[2],"35.5 µM [rising, single point]"
S=C1NC(c2cccs2)=CC(c2ccc(Br)cc2)N1 (stereo not given),AC50,[1],"35.5 µM [rising, single point]"
same,AC50,[2],"28.2 µM [rising, single point]"
CCN(CC)C(=O)NC(c1ccc(C)c(F)c1)C(Cl)(Cl)Cl (stereo not given),AC50,[2],"22.4 µM [rising, single point]"
CCSC(=Nc1ccccc1)Nc1ccccc1,AC50,[1],"0.0708 µM [falling, full curve, poor fit]"
COc1ccccc1NC(=S)NNC(=O)c1ccc(Cl)cc1Cl,AC50,[2],"31.6 µM [rising, single point]"
O=C(NNc1c(Cl)cc(Cl)cc1Cl)C1CCC1,AC50,[1],"5.62 µM [rising, full curve, poor fit]"
Cc1noc(C)c1-c1nccc(-n2ccnc2)n1,AC50,[1],"5.01 µM [rising, single point]"
same,AC50,[2],"3.55 µM [rising, single point]"
CCc1cccc(N=c2c([N+](=O)[O-])nn(-c3ccc(Cl)cc3)n2O)c1,AC50,[2],"35.5 µM [rising, single point]"
O=C(CNC1CCCCC1)NCC1(c2ccccc2)CCCC1,AC50,[1],"17.8 µM [falling, partial curve, poor fit]"
same,AC50,[2],"35.5 µM [falling, single point]"
Cc1ccc(N=N/C(=C\O)C(=O)c2ccc(Cl)cc2)cc1,AC50,[2],"2.51 µM [falling, partial curve]"
COc1ccc(N2CCN(C(=O)Nc3cccc(C(F)(F)F)c3)CC2)cc1,AC50,[2],"35.5 µM [rising, single point]"
C=CCNC(=S)NNC(=O)c1cc(C)nc2ccccc12,AC50,[1],"35.5 µM [rising, single point]"
O=C(O)C1C2CCC(O2)C1C(=O)Nc1ccc(O)cc1 (stereo not given),AC50,[1],"2.24 µM [falling, partial curve, poor fit]"
CC(=O)Oc1ccccc1C(=O)Oc1ccccc1C(=O)O,AC50,[1],"0.316 µM [falling, full curve, poor fit]"
same,AC50,[2],"0.316 µM [falling, single point]"
Cc1cc(C(=O)CSc2nnc(Cc3ccccc3)o2)c(C)n1Cc1ccc2c(c1)OCO2,AC50,[2],"11.2 µM [rising, single point]"
CC1(C)COCN1S(=O)(=O)c1ccc(C(=O)Nc2nnc(-c3ccc(Cl)s3)o2)cc1,AC50,[2],"12.6 µM [rising, partial curve, poor fit]"
COc1ccc(-n2cc(-c3ccc(C)cc3)[n+]3c2SCC3)cc1,AC50,[2],"3.16 µM [rising, full curve]"
O=C1Nc2ccccc2C1(c1ccccc1)c1ccccc1,AC50,[2],"31.6 µM [rising, single point]"
Nc1ccccc1SC1CC(=O)N(c2ccccc2Cl)C1=O (stereo not given),AC50,[1],"2 µM [rising, partial curve, poor fit]"
O=C(NCCc1ccccc1)c1cc(Sc2ccc(F)cc2F)nc2ccccc12,AC50,[1],"0.0224 µM [rising, full curve, poor fit]"
Cc1cc(O)c(C(C)C)cc1Cl,AC50,[1],"35.5 µM [falling, single point]"
same,AC50,[2],"35.5 µM [falling, single point]"
COc1ccc(NS(=O)(=O)c2ccc3[nH]c4c(c3c2)CCCCCC4)cc1,AC50,[1],"35.5 µM [falling, single point]"
same,AC50,[2],"31.6 µM [falling, single point]"
COC(=O)c1cn(NC(=O)c2ccccc2[N+](=O)[O-])c(=O)c2ccccc12,AC50,[1],"35.5 µM [falling, single point]"
CC1CCC(C(C)C)C(OC(=O)Cn2c(-c3ccc(F)cc3)[n+](C)c3ccccc32)C1 (stereo not given),AC50,[2],"11.2 µM [rising, partial curve]"
CCN(CC)c1ccc(NC(=O)CSc2ccsc2[N+](=O)[O-])c(C)c1,AC50,[2],"35.5 µM [rising, single point]"
O=C(Nc1nc2c(s1)CCCC2)c1ccc(Br)s1,AC50,[2],"25.1 µM [rising, single point]"
COc1cc(OC)cc(-c2nnc(Sc3ccc(C=O)cc3[N+](=O)[O-])o2)c1,AC50,[1],"17.8 µM [falling, single point]"
COc1ccc(O)c(-c2[nH]ncc2C(=O)c2ccccc2C)c1,AC50,[1],"0.355 µM [rising, full curve, poor fit]"
O=C(COc1cccc(C(F)(F)F)c1)N1CCN(c2ccc(O)cc2)CC1,AC50,[2],"3.98 µM [rising, partial curve]"
Cc1ccc(-c2csc(N(CC3CCCO3)C(=O)c3ccco3)n2)cc1 (stereo not given),AC50,[1],"14.1 µM [rising, single point]"
same,AC50,[2],"17.8 µM [rising, partial curve]"
CCCCn1c(CN(C)Cc2ccccc2)nc2c1c(=O)n(C)c(=O)n2C,AC50,[2],"11.2 µM [rising, partial curve]"
COc1cccc(NC(=S)N/N=C2/CCCCc3ccccc32)c1,AC50,[2],"35.5 µM [rising, single point]"
Cc1c(CCOC(=O)C23CC4CC(CC(C)(C4)C2)C3)sc[n+]1Cc1ccccc1,AC50,[1],"12.6 µM [rising, single point]"
CN(C)/C=C/c1onc(-c2ccccc2Cl)c1C#N,AC50,[1],"28.2 µM [falling, partial curve]"
Cc1ccc(S(=O)(=O)n2c3ccc(F)cc3c3nc(C)sc32)cc1,AC50,[1],"12.6 µM [rising, single point]"
same,AC50,[2],"31.6 µM [rising, single point]"
COCCCNC(=O)Cc1coc2ccc3ccccc3c12,AC50,[1],"22.4 µM [falling, single point]"
same,AC50,[2],"17.8 µM [falling, single point]"
CCN(CC)S(=O)(=O)c1cccc(-c2cn3cc(C)ccc3n2)c1,AC50,[2],"17.8 µM [rising, single point]"
CC(C)N=C(NS(=O)(=O)c1ccccc1)C(Cl)(Cl)Cl,AC50,[1],"35.5 µM [falling, partial curve]"
same,AC50,[2],"6.31 µM [falling, partial curve]"
COCCNc1ncnc2c1c(-c1ccccc1)cn2-c1cccc(Cl)c1,AC50,[1],"35.5 µM [falling, partial curve, poor fit]"
same,AC50,[2],"35.5 µM [falling, partial curve, poor fit]"
CC(/C=C/c1cccc([N+](=O)[O-])c1)=N/NC(=O)c1cccnc1,AC50,[2],"35.5 µM [rising, single point]"
COc1cc(NC(=O)CSc2ccc3c(c2)OCCO3)cc(OC)c1OC,AC50,[1],"0.447 µM [falling, single point]"
CC(Oc1cc(Cl)ccc1Cl)C(=O)N/N=C\c1ccnn1C (stereo not given),AC50,[2],"3.55 µM [falling, partial curve]"

# Laid out differently: results already given
compound	measurement	setting	value
O=C1Nc2ccccc2C1(c1ccccc1)c1ccccc1	AC50	[2]	31.6 µM [rising, single point]
O=C(NCCc1ccccc1)c1cc(Sc2ccc(F)cc2F)nc2ccccc12	AC50	[1]	0.0224 µM [rising, full curve, poor fit]
COCCNc1ncnc2c1c(-c1ccccc1)cn2-c1cccc(Cl)c1	AC50	[1]	35.5 µM [falling, partial curve, poor fit]
COc1cc(NC(=O)CSc2ccc3c(c2)OCCO3)cc(OC)c1OC	AC50	[1]	0.447 µM [falling, single point]

# Shown with bars between the fields: entries from further up.
compound | measurement | setting | value
FC(F)Oc1ccc(-c2csc(Cc3nnc4n3CCCCC4)n2)cc1 | AC50 | [1] | 15.8 µM [rising, single point]
same | AC50 | [2] | 31.6 µM [rising, single point]

# — PubChem BioAssay AID1487 (National Center for Advancing Translational Sciences (NCATS), 2009)
